# Laboratory results taken from PMC7303359.
# The exact form of at least one protein or probe is not confirmed. The direction of at least one scale is not stated here.
# Target: T1, TraJR1 (Escherichia coli plasmid R1) (UniProt P05837)
# T1 sequence (looked up, limits assumed): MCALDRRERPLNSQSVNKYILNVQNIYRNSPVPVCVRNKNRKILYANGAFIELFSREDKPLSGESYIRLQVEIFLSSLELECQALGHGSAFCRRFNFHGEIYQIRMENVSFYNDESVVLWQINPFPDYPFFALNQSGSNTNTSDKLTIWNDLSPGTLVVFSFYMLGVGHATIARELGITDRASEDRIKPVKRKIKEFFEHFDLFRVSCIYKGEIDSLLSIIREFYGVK
# Assay: EMSA
# Conditions: 500 nM TraJR1; EMSA: 0.5 nM DNA, 12 mM HEPES pH 7.9, 30 mM Tris-Cl pH 7.5, 60 mM KCl, 10% glycerol, 1.7 mM EDTA, 26 mM boric acid, 5 mM TCEP, 30 C 15 min; recombinant protein; label: 5'-Cy5; probe letters rebuilt from the primers and the genome
sequence,measurement,value
TAACACCTCCCGCTGTTTATCTTCTGGTTACCACTTATGTTTGCAGAATAATCAGAAAAGGTAAATAGACGGAAAGTCTATATTTTATTAACACCTTATTAACGCGTATTTATGATACACATAGCCTTCTCGTATAAATAATAAATAAACTTTTTATTGTAGAGTAAGATAATTAACTCATCTTTATTAGAAACAGAGAAGTAGTCGCATATCAGAGATGCGTGTTTCTTTGATGTGGAGATGGATATATTTAATATTCTTGCTATAGCATTATGACTGATTCCGGTGCTATATAAGTAAAAGACATCATTTACATATGATGATACAGAAGAATCATCACTCATTCTTCTGATTATATTTCTGATATCATCACTGACAATCGTTTTTTGATTATAACTGTCTTTATGACGAACATGAGCAGC (double strand) [FPY],binding signal,34 % free DNA
